The test system of series [1] is HeLa (cervical carcinoma). Briefly: Cytotoxicity screening test, HeLa cells (resazurin, 72 h). In kind it is cell-based, human. The settings on record: HeLa versus BJ. The protocol:
(§1) The screening human cancer cell lines used in this investigation were CEM (T-lymphoblastic leukemia), MCF7 (breast carcinoma), HeLa (cervical carcinoma) and G-361 (malignant melanoma) from the European Collection of Authenticated Cell Cultures (Salisbury, UK). Human foreskin fibroblasts (BJ) were used as reference cells, and they were a kind gift from Prof. Bartek from Danish Cancer Society Center (Copenhagen, Denmark). Cells were cultured in DMEM (Dulbecco’s Modified Eagle Medium) or in RPMI 1640 medium (CEM). Media used were supplemented with 10% fetal or 20% (CEM) bovine serum, L-glutamine (2 mM), and 1% penicillin-streptomycin mixture (all from Sigma, MO, USA). The cell lines were maintained under standard cell culture conditions at 37 °C and 5% CO2 in a humid environment. Cells were subcultured twice or three times a week using the standard trypsinization procedure. A description of the experimental procedure used in the cytotoxicity screening tests was already published. The cell viability was measured after 72 h using resazurin (Sigma, St. Louis, MO, USA).
In general terms: Alamar Blue is a resazurin reagent that responds to reducing activity.

Series [2] deals with G-361 (malignant melanoma). Briefly: Cytotoxicity screening test, G-361 cells (resazurin, 72 h). The settings on record: G-361 versus BJ. In kind it is cell-based, human. The protocol:
as §1

Regarding `CC(=O)O[C@H]1CC[C@]2(C)[C@H]3CC=C4[C@@H]5CC(C)(C)CC[C@]5(C(=O)NCCc5c[nH]c6ccc(F)cc56)CC[C@@]4(C)[C@]3(C)CC[C@H]2C1(C)C` [Compound 3c], the “Therapeutic Index TI (HeLa)” value in series [1] is reported as 4. Regarding `CC(=O)O[C@H]1CC[C@]2(C)[C@H]3CC=C4[C@@H]5CC(C)(C)CC[C@]5(C(=O)NCCc5c[nH]c6cc(F)ccc56)CC[C@@]4(C)[C@]3(C)CC[C@H]2C1(C)C` [Compound 3b], the “Therapeutic Index TI (G-361)” value in series [2] is 3. The “Therapeutic Index TI (HeLa)” value in series [1] worked out at 7. For `CC1(C)CCC2(C(=O)NCCc3c[nH]c4cc(F)ccc34)CCC3(C)C(=CCC4C5(C)CCC(O)C(C)(C)C5CCC43C)C2C1` (stereo not shown) [Compound 4b], the “Therapeutic Index TI (HeLa)” value in series [1] is listed as 2.

For `CC1(C)CCC2(C(=O)NCCc3c[nH]c4ccc(F)cc34)CCC3(C)C(=CCC4C5(C)CCC(O)C(C)(C)C5CCC43C)C2C1` (stereo not shown) [Compound 4c], in series [1], the “Therapeutic Index TI (HeLa)” value turned out to be 2.5. Take `CC(=O)O[C@H]1CC[C@]2(C)[C@H]3CC=C4[C@@H]5CC(C)(C)CC[C@]5(C(=O)NCCc5c[nH]c6ccccc56)CC[C@@]4(C)[C@]3(C)CC[C@H]2C1(C)C` [Compound 3a, Tryptamine amide of (3β)-3-(acetyloxy)olean-12-en-28-oic acid]: in series [2], the “Therapeutic Index TI (G-361)” value was 5. Moreover, the “Therapeutic Index TI (HeLa)” value in series [1] stood at 5.

These data come from article PMC8540097, “Novel Oleanolic Acid-Tryptamine and -Fluorotryptamine Amides: From Adaptogens to Agents Targeting In Vitro Cell Apoptosis” (Plants, 2021).
